PMC5447885
Results are given in words; binding and its absence hold for the method and conditions named.

Legend:
Test in all cases: two-hybrid; yeast two-hybrid; told only in the discussion, no conditions, constructs or orientation given
[1] = biological target: T1, OsPAIR3 (rice) (UniProt B9G5N1)
T1 sequence: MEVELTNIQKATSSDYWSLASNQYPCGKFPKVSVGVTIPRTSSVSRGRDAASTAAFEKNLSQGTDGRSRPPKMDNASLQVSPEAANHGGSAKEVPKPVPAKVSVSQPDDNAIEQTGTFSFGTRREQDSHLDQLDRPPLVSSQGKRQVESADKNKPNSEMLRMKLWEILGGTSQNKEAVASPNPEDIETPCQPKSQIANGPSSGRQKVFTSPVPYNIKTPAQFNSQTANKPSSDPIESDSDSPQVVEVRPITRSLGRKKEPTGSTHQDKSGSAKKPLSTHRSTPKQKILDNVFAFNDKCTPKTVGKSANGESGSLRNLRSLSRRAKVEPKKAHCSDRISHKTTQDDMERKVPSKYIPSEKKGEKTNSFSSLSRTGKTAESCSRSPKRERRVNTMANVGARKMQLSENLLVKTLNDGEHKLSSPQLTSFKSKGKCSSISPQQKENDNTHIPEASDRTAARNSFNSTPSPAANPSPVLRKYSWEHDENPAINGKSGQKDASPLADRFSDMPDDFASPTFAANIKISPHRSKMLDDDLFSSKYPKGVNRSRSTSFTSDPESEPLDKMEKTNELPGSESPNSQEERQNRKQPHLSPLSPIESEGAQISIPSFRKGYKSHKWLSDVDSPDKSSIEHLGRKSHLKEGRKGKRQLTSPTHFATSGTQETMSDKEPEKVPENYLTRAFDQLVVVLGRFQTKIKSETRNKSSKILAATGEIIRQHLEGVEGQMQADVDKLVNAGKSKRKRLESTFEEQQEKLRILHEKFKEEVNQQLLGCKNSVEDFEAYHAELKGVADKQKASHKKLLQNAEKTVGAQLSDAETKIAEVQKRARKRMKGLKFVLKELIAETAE

[2] = biological target: T2, OsZEP1 (rice) (UniProt Q7FAD5)
T2 sequence: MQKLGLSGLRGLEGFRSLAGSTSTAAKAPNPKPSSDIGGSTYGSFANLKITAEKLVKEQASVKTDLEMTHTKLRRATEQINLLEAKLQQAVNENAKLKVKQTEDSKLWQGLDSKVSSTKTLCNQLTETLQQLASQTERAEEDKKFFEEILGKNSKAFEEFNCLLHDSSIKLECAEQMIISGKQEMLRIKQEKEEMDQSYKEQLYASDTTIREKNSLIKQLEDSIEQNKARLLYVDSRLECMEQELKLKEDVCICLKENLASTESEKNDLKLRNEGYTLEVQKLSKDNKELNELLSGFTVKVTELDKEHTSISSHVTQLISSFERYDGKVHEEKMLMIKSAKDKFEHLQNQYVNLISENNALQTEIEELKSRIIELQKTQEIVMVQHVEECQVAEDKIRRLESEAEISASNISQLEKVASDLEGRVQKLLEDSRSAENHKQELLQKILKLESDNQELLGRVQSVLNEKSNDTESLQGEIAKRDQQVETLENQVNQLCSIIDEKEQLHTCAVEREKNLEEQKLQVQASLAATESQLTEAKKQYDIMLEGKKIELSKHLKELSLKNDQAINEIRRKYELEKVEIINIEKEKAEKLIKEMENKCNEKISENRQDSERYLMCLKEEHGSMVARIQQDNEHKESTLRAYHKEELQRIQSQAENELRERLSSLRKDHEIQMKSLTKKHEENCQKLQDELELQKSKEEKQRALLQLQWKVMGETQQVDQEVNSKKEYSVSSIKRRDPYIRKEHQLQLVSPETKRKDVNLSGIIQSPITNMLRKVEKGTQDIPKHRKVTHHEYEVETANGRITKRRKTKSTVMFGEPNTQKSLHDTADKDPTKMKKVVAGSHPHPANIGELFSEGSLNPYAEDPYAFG

[3] = biological target: T3, OsCRC1 (rice) (UniProt Q7XK25)
T3 sequence: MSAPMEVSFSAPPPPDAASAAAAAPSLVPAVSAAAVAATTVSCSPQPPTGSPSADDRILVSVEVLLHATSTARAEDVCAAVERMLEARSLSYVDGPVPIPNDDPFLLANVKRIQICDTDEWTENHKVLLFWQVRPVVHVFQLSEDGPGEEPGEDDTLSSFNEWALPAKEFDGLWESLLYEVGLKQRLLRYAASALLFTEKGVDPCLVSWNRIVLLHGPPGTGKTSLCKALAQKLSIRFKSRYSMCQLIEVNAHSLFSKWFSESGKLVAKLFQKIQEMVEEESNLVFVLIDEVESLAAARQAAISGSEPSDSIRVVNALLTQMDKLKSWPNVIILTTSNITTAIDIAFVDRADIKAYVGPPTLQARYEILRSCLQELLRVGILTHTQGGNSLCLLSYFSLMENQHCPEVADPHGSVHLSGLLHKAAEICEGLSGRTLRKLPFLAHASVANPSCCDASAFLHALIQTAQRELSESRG

binding [1]: no binding
binding [2]: no binding
binding [3]: no binding
Substance: OsBVF1 (Bivalent Formation 1) (rice (Oryza sativa L.))
